Experimental data reported in PubChem BioAssay AID2013 (Sanford-Burnham Center for Chemical Genomics, 2009).
Among all 290,000 compounds or so, about 370 (0.13%) were called active. The inconclusive results got no clear call from the source; some entries with a clear call stand among them for comparison.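 The calls were made as follows: active = spots per cell inhibited over 60%, with over 100 cells counted and total cytoplasm intensity under 500,000; inconclusive = wells with under 100 cells, flagged as likely toxic; inactive = the rest.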

By UniProt entry, the sequences of proteins in these tests, tags left out. Where a name states a change or a piece, a line headed by the entry shows the natural chain unless it says otherwise.
UniProt Q9Y2T6: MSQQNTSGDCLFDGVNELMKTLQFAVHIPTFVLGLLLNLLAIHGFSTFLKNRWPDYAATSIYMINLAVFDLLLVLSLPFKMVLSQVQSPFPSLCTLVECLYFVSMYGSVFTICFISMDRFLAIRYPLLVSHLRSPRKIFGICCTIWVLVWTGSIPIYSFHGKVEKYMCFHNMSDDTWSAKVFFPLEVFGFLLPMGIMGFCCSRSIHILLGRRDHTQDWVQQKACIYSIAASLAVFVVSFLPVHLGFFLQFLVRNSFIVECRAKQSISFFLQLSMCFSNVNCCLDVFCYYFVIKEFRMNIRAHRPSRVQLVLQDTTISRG

molecular target: G-protein coupled receptor 55 (Homo sapiens) (UniProt Q9Y2T6); test: inhibition of LPI-stimulated GPR55 beta-arrestin translocation – imaging, U2OS, beta-arrestin-GFP, LPI agonist, primary screen (AID 2013); details: LPI antagonism, at 10 µM, active compounds read high;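 also: U2OS cells stably carrying GPR55 and arrestin-GFP stimulated by 5 µM LPI near EC80; imaged beta-arrestin-GFP aggregate spots per cell after agonist stimulation; plate controls were LPI-stimulated DMSO wells for no effect and DMSO wells without LPI for full effect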

SMILES	inhibition
COc1ccc(-[n+]2c(C)cc(/C=C3\Sc4ccccc4N3C)cc2C)cc1	inconclusive: 104%
Cc1ccc(NC(=O)CN2C(=O)NC(C)(c3ccc(Cl)cc3)C2=O)cc1 (configuration not stated)	inconclusive: 41.5%
O=C(COc1cnc2ccccc2n1)NCCC1=CCCCC1	inconclusive: 104%
Cn1c(=O)c(NCCc2ccccc2)c2c3c(cccc31)C(=O)c1ccccc1-2	inconclusive: 101%
COc1ccc(C(CCNCc2ccc(F)cc2)c2ccc(F)cc2)cc1 (configuration not stated)	inactive: 45.1%
COc1ccc(OC)c(-c2csc(N(CC3CCCO3)C(=O)C3CCCCC3)n2)c1 (configuration not stated)	active: 82.9%
Cc1ccc(C2C3CN(C(C)C)CC=C3C(C#N)=C(N)C2(C#N)C#N)cc1 (configuration not stated)	inconclusive: 85.8%
CC[n+]1c(/C=C/c2c[nH]c3ccccc23)ccc2cc(C)ccc21	inconclusive: 82.7%
COc1ccc(C)cc1NC(=O)CCNS(=O)(=O)c1cccc2nonc12	inactive: 6.9%
CCN(CC)c1ccc(/C=C(/C#N)c2nc3ccccc3[nH]2)c(OC(C)C)c1	inconclusive: 61.7%
O=C(CCCCC(=O)NNC(=O)COc1ccccc1)NNC(=O)COc1ccccc1	inconclusive: 103%
Cc1ccccc1C(=O)Nc1c2c(nn1C(C)(C)C)CS(=O)(=O)C2	inconclusive: 88.1%
O=C1/C(=C/c2ccc(N3CCOCC3)o2)SC(=Nc2ccccc2)N1CCc1c[nH]c2ccccc12	inconclusive: 89.6%
O=C1S/C(=C\c2ccc(N3CCOCC3)o2)C(=O)N1Cc1ccc(F)cc1	inconclusive: 90.6%
O=C(Nc1nc(-c2ccc(Cl)cc2Cl)cs1)c1ccc(OCC2CCCO2)cc1 (configuration not stated)	active: 96%
Cc1ccc(NC2=C/C(=N/S(=O)(=O)c3cccs3)c3ccccc3C2=O)cc1	inactive: 16%
O=C(O)C(Cc1ccccc1)NS(=O)(=O)c1ccc2c(c1)OCCO2 (configuration not stated)	inconclusive: 72.1%
Clc1ccccc1C(c1ccccc1)(c1ccccc1)n1ccnc1	active: 98.7%
O=C(NCCNC(=O)c1cc(Cl)ccc1Cl)c1ccccn1	inactive: 3.4%
Clc1ccc(OCCCCSc2ncccn2)cc1	inconclusive: 81.4%
O=C1CSC(c2cccnc2)N1c1ccc(F)cc1 (configuration not stated)	inconclusive: 104%
O=C1CC(SC(=Nc2ccccc2)Nc2ccccc2)C(=O)N1c1ccc(Cl)c(Cl)c1 (configuration not stated)	active: 72.2%

SMILES	inhibition
Cc1nn(-c2ccccc2)c2[nH]c(=O)c(CNCc3ccc4c(c3)OCO4)cc12	inactive: -26.6%
COc1ccc(-c2oc3ccc(-c4cc(OC)c(OC)c(OC)c4)cc3c2C(=O)c2ccc(OC)nc2)cc1	inconclusive: 104%
COc1ccc(N=C2S/C(=C\c3ccc(N4CCOCC4)o3)C(=O)N2CCc2c[nH]c3ccccc23)cc1	inconclusive: 30.5%
O=C(c1ccco1)N(CCCN1CCOCC1)c1nc(-c2ccc(Cl)cc2)cs1	active: 69.4%
CC1CCCN(C(=O)c2ccc(S(=O)(=O)Nc3ccccc3Cl)cc2)C1 (configuration not stated)	inconclusive: 57.9%
COc1ccc(CNS(=O)(=O)c2ccc(-n3cnnn3)c(OC)c2)cc1	inconclusive: 19.8%
CN1CCN(CCCNC(=O)c2ccc(/C=C3\Sc4ccccc4N(Cc4ccc(F)cc4)C3=O)cc2)CC1	inactive: 6.1%
Cc1nc(NC(=O)CN(C)S(=O)(=O)c2ccc(Br)cc2)sc1C	inconclusive: 104%
CC1(C(=O)N(CC(=O)NC2CCCC2)Cc2ccccc2)CC(=O)N=C2C=CC=CN21 (configuration not stated)	inconclusive: 40.5%
N#C/C(=C/c1ccc(N2CCCCC2)o1)c1cccc(F)c1	inconclusive: 59%
CCN1/C(=C/c2ccc3cc(C)cc(C)c3[n+]2CC)Sc2cc(C)ccc21	inconclusive: 103%
COc1ccc(OC)c(-c2csc(N(CC3CCCO3)C(=O)Cc3ccccc3)n2)c1 (configuration not stated)	inactive: 17.6%
CCCNC(=O)Cn1c(=O)/c(=C\c2ccc(-c3ccc([N+](=O)[O-])cc3)o2)s/c1=C\C(=O)C(C)(C)C	inconclusive: 95.6%
CCS(=O)(=O)c1ccc(-c2csc(-c3ccccc3Cl)n2)c(Cl)c1Cl	inactive: -11.1%
COc1cccc(/C=C/C(=O)OCC(=O)Nc2ccc(S(=O)(=O)N3CCCC3)cc2)c1	inconclusive: -49.6%
CC(=O)Nc1ccc(N=Cc2c(O)c(C(=O)Nc3ccccc3)cc3ccccc23)cc1	inconclusive: 74.3%
COc1ccc2nc(NC(=O)CN(c3ccc(C)cc3)S(=O)(=O)c3c(C)nn(C)c3C)sc2c1	inactive: 22.1%
CN1CC=C2C(C#N)=C(N)C(C#N)(C#N)C(CCc3ccccc3)C2C1 (configuration not stated)	inconclusive: 69.7%
C=CCNC(=O)c1cc2c(=O)n3cc(C)ccc3nc2nc1NCC1CCCO1 (configuration not stated)	active: 93.3%
O=C(Nc1c2c(nn1-c1ccccc1)CS(=O)(=O)C2)c1cc2ccccc2o1	inconclusive: 96.4%
COc1cc(/C=N/OCC(=O)NC2CCCCC2C)ccc1OCc1ccc(Cl)cc1 (configuration not stated)	inactive: -3.5%
CCN1/C(=C/c2ccc3cc(C)ccc3[n+]2C)Sc2ccc3sccc3c21	inconclusive: 100%

Gathered by group, the compounds so far with fluorine
SMILES	inhibition
COc1ccc(C(CCNCc2ccc(F)cc2)c2ccc(F)cc2)cc1 (configuration not stated)	inactive: 45.1%
O=C1S/C(=C\c2ccc(N3CCOCC3)o2)C(=O)N1Cc1ccc(F)cc1	inconclusive: 90.6%
O=C1CSC(c2cccnc2)N1c1ccc(F)cc1 (configuration not stated)	inconclusive: 104%
CN1CCN(CCCNC(=O)c2ccc(/C=C3\Sc4ccccc4N(Cc4ccc(F)cc4)C3=O)cc2)CC1	inactive: 6.1%
N#C/C(=C/c1ccc(N2CCCCC2)o1)c1cccc(F)c1	inconclusive: 59%

Next part.

SMILES	inhibition
Cc1cc(NC(=O)CN(C)S(=O)(=O)c2cnc[nH]2)ccc1Br	inactive: 0.7%
O=C(NCCc1ccccc1)C1CCN(S(=O)(=O)c2cccc3nsnc23)CC1	inconclusive: 94.1%
CCOCC(=O)Nc1cc(C(=O)OC)ccc1C(=O)OC	inconclusive: 86.7%
CCN(CC)c1ccc(/C=C(/C#N)c2nc3ccc(C)cc3[nH]2)c(OC(C)C)c1	inconclusive: 64.9%
CC1=C(C(=O)Nc2cccc([N+](=O)[O-])c2)C2(CCC(C)CC2)OC1=O (configuration not stated)	inconclusive: 91.9%
Cc1cc2c3c(ccc(C)c3n1)N=CN2c1ccccc1	inconclusive: -17.2%
COc1ccccc1NC(=O)C(=O)Nc1ccccn1	inconclusive: 41.4%
COC(=O)c1c(NC(NC(=O)CC(C)C)C(Cl)(Cl)Cl)sc2c1CCC2 (configuration not stated)	inactive: 60%
CCN1/C(=C/c2ccc3ccc(C)cc3[n+]2CC)Sc2ccccc21	inconclusive: 102%
Cc1ccc(N2C(=O)C3CCCN3C2=S)cc1C (configuration not stated)	inactive: 3.3%
CCOc1ccc(C2(C)CC(=O)N(C)C2=O)cc1 (configuration not stated)	inactive: 5.8%
CCOc1ccccc1NC(=O)NCc1ccco1	inactive: 11.3%
CCN1C(=O)C(O)(CC(=O)c2ccccn2)c2ccccc21 (configuration not stated)	inactive: 12%
Fc1ccc(CNC(=S)Nc2ccc(OC(F)F)cc2)cc1	inconclusive: 102%
C=CCN(C(=O)CNC(=O)c1ccco1)C(C(=O)NC1CCCCC1)c1ccc(F)cc1 (configuration not stated)	active: 73.3%
Cc1cc2n(n1)C(c1cn(-c3ccccc3)nc1C)Nc1ccccc1-2 (configuration not stated)	inconclusive: 80.7%
CC1CCN(C(c2ccc(N(C)C)cc2)c2nnnn2C(C)(C)C)CC1 (configuration not stated)	inconclusive: 103%
CCN1CC=C2C(C#N)=C(N)C(C#N)(C#N)C(c3cc(Cl)ccc3Cl)C2C1 (configuration not stated)	inconclusive: 94.7%
COc1ccccc1OCCCC(=O)Nc1ccc2c(c1)OCCO2	inconclusive: 55.2%
O=S(=O)(c1ccc(Br)cc1)c1nc(-c2ccco2)oc1NCC1CCCO1 (configuration not stated)	inactive: -16.8%
O=C(Nc1cccnc1)c1ccc(Br)c(S(=O)(=O)N2CCCC2)c1	inconclusive: 46.6%
c1ccc(COCCCn2cc(-c3ccccc3)nn2)cc1	inconclusive: 100%

SMILES	inhibition
CSCCC(NC(=O)COc1ccccc1)C(=O)NCC1COc2ccccc2O1 (configuration not stated)	inconclusive: 82.1%
CCCN1C(=O)/C(=C/c2c(N3CCNC(=O)C3CC(=O)OCC)nc3c(C)cccn3c2=O)SC1=S (configuration not stated)	active: 88.9%
CC(C)N1CC=C2C(C#N)=C(N)C(C#N)(C#N)C(c3ccccc3)C2C1 (configuration not stated)	inconclusive: 53.2%
CN(C)CCN1C(=O)C(=O)/C(=C(/O)c2ccccc2)C1c1ccccc1F (configuration not stated)	inconclusive: 104%
COc1ccc(C2C(C#N)=C(N)Oc3c2c(-c2ccccc2)nn3-c2ccccc2)c(OC)c1OC (configuration not stated)	inactive: 79.5%
COc1ccc(-c2cc(C)no2)cc1S(=O)(=O)N1CCOc2ccc(Cl)cc21	inconclusive: 103%
COCCN1C(=O)/C(=C/c2ccc(N3CCCC3)cc2C)SC1=S	inconclusive: 91.1%
CCOc1ccc2cc(C(=O)c3ccccc3)c(=O)oc2c1	inconclusive: -99.7%
O=C(CNC(=O)c1ccccc1F)NC1CC1	inconclusive: 103%
CC(C)(C)[C@H]1C=C(C(=O)N2CCN(Cc3ccc4c(c3)OCO4)CC2)O[C@@H](OCCCCO)C1	inconclusive: 103%
CCN(CC)c1ccc(/C=C2/SC(=O)N(C(C)C)C2=O)o1	inconclusive: 83%
CCCCn1c(NC(=O)c2ccccc2)c(C#N)c2nc3ccccc3nc21	inactive: -12.6%
C(/C=C/C=C/Nc1ccccc1)=Nc1ccccc1	inconclusive: 67.5%
CCCC1C2CN(C(C)=O)CC=C2C(C#N)=C(N)C1(C#N)C#N (configuration not stated)	inconclusive: 74.7%
CCN1/C(=C/c2ccc3cc(C)ccc3[n+]2CC)Sc2cc(C)ccc21	inconclusive: 102%
Clc1ccc(OCc2nc(-c3ccncc3)no2)cc1	inconclusive: -68.9%
COc1ccc(Cl)cc1S(=O)(=O)N1CCCC(C(=O)N2CCOCC2)C1 (configuration not stated)	inconclusive: 47%
O=C1NC2=C(C(=O)CCC2)C(c2ccccc2)N1 (configuration not stated)	inconclusive: 16.6%
CN(C)C(CNC(=O)Cc1cccc(C(F)(F)F)c1)c1ccco1 (configuration not stated)	inconclusive: 103%
Cc1ccc(CN=Cc2[nH]c3ccc(Br)c(Cl)c3c2O)cc1	inconclusive: 102%
CCOc1ccc2nc(N(CCCN(C)C)C(=O)c3ccc(S(=O)(=O)N4CCc5ccccc5C4)cc3)sc2c1	inconclusive: 99.7%

Part of the list above in a different format:
SMILES | inhibition
CC[n+]1c(/C=C/c2c[nH]c3ccccc23)ccc2cc(C)ccc21 | inconclusive: 82.7%
O=C(c1ccco1)N(CCCN1CCOCC1)c1nc(-c2ccc(Cl)cc2)cs1 | active: 69.4%
